This is one part of the list.
Compound: CC1Cc2ccccc2N1C(=O)C1CCCN(C1)C(=O)CCl (mixture of isomers) [TRIM25 ligand 11 (diastereomer mixture)]
Assay: probe-labelled cysteine peptide fold change vs DMSO (competition) (log2 fold change); higher = less target engagement (more negative = stronger competition)
Details: 10 µM; THP-1; incubation time: 4 h
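Further: competitive chemoproteomic profiling in live THP-1 cells with an iodoacetamide desthiobiotin (IA-DTB) probe, comparing probe-labelled peptide intensities in compound-treated cells against DMSO-treated controls.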

Protein sequences, listed by entry. Tags and fused reporters are not part of them. Lines headed by an entry give the natural chain unless they say otherwise; changes in a name come on top.
UniProt Q93009, whole entry, looked up: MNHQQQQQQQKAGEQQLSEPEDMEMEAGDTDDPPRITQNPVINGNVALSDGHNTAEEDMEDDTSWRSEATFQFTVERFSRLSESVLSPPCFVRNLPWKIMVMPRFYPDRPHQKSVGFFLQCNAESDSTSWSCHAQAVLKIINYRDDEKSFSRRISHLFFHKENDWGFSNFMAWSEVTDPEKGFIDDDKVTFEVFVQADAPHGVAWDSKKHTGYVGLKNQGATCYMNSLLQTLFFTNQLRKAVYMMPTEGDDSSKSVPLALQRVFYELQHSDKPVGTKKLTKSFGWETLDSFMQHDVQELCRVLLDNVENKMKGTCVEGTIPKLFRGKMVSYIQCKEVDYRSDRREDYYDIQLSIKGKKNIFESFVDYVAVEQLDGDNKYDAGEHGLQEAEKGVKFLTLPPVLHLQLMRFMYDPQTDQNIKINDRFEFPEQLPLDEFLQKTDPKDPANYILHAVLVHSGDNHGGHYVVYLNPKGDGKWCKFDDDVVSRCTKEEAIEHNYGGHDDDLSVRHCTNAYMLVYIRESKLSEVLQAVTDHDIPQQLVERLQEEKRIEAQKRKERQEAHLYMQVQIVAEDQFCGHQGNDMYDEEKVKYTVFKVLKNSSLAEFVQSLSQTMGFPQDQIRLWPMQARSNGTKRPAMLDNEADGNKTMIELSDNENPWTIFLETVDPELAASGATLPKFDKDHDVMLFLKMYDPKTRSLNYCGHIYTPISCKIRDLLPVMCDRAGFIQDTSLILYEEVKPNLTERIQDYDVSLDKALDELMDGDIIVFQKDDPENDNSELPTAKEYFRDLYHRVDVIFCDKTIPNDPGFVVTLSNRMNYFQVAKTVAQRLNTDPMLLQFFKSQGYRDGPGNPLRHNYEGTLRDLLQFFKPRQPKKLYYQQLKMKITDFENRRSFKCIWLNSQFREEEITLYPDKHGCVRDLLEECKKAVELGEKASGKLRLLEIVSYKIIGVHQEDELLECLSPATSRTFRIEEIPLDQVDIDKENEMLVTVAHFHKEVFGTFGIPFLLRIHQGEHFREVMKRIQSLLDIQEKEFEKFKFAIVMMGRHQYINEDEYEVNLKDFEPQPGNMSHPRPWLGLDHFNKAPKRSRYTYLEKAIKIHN
UniProt P22695: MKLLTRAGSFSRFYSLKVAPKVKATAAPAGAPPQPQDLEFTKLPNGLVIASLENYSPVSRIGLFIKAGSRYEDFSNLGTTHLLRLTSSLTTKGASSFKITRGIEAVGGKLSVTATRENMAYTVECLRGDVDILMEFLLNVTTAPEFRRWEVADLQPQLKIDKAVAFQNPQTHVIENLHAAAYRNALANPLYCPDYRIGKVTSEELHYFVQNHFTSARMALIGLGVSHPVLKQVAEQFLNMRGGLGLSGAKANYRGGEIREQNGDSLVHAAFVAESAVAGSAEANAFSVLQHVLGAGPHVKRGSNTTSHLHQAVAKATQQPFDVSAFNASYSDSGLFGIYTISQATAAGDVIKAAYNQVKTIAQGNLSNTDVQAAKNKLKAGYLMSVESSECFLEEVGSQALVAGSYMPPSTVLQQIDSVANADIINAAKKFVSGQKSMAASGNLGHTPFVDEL
UniProt P11172: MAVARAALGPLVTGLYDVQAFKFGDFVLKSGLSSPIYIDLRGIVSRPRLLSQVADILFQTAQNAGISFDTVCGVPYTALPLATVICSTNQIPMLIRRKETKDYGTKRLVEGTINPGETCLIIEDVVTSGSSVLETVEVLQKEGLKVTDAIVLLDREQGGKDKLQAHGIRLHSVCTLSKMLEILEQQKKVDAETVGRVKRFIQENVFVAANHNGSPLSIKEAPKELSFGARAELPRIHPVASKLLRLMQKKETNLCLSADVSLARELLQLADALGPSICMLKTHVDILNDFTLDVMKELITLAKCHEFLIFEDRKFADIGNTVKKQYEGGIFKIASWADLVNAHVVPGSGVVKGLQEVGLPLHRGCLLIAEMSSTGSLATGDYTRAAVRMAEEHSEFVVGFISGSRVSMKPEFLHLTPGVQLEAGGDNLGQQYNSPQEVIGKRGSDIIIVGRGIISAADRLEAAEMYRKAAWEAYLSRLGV
UniProt P54578: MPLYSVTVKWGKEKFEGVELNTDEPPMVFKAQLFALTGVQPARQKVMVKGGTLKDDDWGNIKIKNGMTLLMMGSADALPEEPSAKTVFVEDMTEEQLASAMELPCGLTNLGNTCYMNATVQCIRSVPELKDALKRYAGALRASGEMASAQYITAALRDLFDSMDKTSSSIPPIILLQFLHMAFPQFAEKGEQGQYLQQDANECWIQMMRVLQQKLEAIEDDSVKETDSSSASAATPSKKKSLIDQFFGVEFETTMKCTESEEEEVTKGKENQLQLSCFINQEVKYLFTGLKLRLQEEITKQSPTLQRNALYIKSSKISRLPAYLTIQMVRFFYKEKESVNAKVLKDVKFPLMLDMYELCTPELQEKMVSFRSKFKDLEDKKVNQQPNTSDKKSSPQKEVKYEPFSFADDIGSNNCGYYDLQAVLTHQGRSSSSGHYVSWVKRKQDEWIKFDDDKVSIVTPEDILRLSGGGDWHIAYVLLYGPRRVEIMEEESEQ
UniProt P35125: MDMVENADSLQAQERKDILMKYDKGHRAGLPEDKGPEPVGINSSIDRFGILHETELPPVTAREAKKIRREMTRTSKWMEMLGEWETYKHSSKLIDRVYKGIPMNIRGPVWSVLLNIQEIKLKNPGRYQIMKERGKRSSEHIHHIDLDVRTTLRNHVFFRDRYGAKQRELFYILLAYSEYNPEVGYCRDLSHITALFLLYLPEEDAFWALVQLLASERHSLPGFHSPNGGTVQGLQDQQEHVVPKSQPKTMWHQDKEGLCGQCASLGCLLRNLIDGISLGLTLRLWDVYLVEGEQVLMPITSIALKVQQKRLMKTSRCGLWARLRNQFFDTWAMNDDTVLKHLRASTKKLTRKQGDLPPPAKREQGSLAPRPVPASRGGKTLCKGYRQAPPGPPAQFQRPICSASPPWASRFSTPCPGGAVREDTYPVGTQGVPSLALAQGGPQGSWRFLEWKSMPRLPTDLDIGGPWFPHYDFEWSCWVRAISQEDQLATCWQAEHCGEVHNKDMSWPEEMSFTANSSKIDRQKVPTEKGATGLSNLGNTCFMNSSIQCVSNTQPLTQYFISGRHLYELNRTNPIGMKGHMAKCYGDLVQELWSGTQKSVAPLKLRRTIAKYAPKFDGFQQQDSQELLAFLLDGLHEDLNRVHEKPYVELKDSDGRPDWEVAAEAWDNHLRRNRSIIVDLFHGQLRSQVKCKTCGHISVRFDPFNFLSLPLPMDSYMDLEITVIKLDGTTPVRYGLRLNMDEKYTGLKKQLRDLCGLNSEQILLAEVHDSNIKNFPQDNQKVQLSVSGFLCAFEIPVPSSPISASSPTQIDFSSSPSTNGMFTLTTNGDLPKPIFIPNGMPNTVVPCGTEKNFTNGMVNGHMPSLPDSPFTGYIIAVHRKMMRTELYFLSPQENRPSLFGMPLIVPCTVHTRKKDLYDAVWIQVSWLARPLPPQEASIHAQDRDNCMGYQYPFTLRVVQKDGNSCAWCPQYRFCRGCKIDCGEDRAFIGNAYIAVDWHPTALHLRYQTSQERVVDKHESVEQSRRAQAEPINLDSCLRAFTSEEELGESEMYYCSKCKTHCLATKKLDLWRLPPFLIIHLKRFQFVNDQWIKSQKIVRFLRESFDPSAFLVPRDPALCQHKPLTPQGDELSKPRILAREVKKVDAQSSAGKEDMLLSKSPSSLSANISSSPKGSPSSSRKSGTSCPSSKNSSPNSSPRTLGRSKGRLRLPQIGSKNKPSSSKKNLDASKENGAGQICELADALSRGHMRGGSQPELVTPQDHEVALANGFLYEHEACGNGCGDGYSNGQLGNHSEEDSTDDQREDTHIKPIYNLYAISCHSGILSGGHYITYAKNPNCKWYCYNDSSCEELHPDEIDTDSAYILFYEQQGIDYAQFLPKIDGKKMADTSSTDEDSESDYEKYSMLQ
UniProt O60287: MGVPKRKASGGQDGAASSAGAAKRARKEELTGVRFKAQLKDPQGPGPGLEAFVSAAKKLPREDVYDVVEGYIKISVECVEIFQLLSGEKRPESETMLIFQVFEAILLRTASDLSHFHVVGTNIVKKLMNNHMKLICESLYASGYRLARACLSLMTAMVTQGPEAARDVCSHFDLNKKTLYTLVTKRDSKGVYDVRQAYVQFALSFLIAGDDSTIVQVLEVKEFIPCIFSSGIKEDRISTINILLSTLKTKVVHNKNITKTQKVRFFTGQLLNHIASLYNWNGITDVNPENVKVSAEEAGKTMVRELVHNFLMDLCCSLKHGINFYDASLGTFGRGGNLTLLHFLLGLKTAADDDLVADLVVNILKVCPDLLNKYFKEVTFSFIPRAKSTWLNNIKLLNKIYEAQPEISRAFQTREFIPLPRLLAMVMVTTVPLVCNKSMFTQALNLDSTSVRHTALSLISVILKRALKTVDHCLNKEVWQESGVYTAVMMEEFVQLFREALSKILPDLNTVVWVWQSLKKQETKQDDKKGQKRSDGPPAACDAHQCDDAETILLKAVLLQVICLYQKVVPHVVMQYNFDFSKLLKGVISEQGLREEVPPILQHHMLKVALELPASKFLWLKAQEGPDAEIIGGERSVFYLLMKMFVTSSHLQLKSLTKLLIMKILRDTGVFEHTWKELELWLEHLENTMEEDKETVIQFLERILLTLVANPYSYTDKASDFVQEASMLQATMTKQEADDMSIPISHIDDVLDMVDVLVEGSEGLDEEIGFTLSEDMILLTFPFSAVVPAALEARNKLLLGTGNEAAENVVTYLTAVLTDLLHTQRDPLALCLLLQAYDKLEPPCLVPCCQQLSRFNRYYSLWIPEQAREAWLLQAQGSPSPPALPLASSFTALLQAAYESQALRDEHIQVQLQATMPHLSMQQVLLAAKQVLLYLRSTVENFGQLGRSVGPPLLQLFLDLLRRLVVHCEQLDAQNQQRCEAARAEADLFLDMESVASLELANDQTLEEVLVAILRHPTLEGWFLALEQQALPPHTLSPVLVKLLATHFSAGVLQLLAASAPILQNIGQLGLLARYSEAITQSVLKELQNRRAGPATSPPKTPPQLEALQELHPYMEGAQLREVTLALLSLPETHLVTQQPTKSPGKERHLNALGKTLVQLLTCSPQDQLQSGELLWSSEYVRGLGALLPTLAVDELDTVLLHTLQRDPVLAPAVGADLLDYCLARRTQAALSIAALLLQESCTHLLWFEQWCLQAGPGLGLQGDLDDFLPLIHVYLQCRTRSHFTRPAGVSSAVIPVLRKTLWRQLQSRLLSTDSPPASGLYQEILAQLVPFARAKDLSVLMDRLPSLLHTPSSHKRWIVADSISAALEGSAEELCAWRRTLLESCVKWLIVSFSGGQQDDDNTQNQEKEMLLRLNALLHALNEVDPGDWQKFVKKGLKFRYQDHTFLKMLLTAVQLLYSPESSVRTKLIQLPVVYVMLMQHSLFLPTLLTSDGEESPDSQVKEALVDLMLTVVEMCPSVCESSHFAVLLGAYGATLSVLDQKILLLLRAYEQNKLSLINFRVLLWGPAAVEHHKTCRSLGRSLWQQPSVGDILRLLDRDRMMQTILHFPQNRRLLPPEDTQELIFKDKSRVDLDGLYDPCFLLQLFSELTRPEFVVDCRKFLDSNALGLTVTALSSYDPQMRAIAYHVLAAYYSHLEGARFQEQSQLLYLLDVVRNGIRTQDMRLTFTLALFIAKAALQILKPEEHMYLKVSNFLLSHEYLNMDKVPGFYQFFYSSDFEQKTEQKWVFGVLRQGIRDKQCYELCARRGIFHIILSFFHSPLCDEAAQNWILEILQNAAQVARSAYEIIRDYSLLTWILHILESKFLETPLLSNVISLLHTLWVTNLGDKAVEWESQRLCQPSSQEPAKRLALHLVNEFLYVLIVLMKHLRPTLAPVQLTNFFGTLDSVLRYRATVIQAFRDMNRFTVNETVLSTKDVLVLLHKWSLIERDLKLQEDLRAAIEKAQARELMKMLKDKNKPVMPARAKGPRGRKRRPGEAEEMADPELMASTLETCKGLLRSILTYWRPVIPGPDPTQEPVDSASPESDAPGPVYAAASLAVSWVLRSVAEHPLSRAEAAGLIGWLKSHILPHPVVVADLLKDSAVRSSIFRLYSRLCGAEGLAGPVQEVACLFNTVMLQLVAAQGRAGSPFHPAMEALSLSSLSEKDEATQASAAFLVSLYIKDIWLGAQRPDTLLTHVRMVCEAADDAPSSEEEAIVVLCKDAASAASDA
UniProt Q9Y3C8: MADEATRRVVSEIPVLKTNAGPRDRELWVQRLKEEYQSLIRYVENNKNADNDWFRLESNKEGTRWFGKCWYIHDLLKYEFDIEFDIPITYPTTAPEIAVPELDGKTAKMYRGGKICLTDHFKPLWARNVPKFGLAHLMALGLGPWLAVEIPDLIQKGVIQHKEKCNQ

Row | Target | probe-labelled cysteine peptide fold change
1 | USP7_Q93009_799_DLYHRVDVIFCDK (UniProt Q93009) | -0.196
2 | UQCRC2_P22695_192_NALANPLYCPDYR (UniProt P22695) | 0.0898
3 | UMPS_P11172_304_CHEFLIFEDR (UniProt P11172) | 0.0477
4 | UMPS_P11172_304_CHEFLIFEDRK (UniProt P11172) | -0.114
5 | USP14_P54578_203_GEQGQYLQQDANECWIQMMR (UniProt P54578) | 0.0111
6 | USP47_Q96K76_656_MMDLEEVIPLDCCR (UniProt Q96K76) | -0.0834
7 | UNC119_Q13432_190_NTCEHIYDFPPLSEELISEMIR (UniProt Q13432) | -0.435
8 | USP14_P54578_415_YEPFSFADDIGSNNCGYYDLQAVLTHQGR (UniProt P54578) | -0.151
9 | USP6_P35125_1036_AQAEPINLDSCLR (UniProt P35125) | -0.111
10 | UMPS_P11172_174_LHSVCTLSK (UniProt P11172) | 0.0745
11 | URB1_O60287_563_AVLLQVICLYQK (UniProt O60287) | -0.105
12 | UGGT1_Q9NYU2_159_TCESDTLEALLLTASERPK (UniProt Q9NYU2) | 0.138
13 | USP38_Q8NB14_38_VVESAEHWLDEAQCEAMFDLTTR (UniProt Q8NB14) | 0.0837
14 | UPF1_Q92900_683_QLILVGDHCQLGPVVMCK (UniProt Q92900) | -0.0105
15 | UFC1_Q9Y3C8_116_ICLTDHFK (UniProt Q9Y3C8) | -0.127
16 | USP7_Q93009_702_SLNYCGHIYTPISCK (UniProt Q93009) | -0.105

Part of the list above, with each value named.
USP14_P54578_415_YEPFSFADDIGSNNCGYYDLQAVLTHQGR (UniProt P54578)
  probe-labelled cysteine peptide fold change: -0.151
USP6_P35125_1036_AQAEPINLDSCLR (UniProt P35125)
  probe-labelled cysteine peptide fold change: -0.111
